No constants are given. Whether binding was seen depends on the method and setting. In cells and extracts the contact can be indirect. Some entries that bind do so weakly or less than the wild type.
Assays:
[1] = target: T1, PPARγ co-activator 1α (PGC-1α) (mouse (endogenous in liver)) (UniProt O70343); assay: co-IP; immunoprecipitation with anti-PGC-1α (sc-518025) from liver extracts of sham WT mice and WT mice 1 h after cerulein-induced acute pancreatitis; Western blot for p65
T1 sequence: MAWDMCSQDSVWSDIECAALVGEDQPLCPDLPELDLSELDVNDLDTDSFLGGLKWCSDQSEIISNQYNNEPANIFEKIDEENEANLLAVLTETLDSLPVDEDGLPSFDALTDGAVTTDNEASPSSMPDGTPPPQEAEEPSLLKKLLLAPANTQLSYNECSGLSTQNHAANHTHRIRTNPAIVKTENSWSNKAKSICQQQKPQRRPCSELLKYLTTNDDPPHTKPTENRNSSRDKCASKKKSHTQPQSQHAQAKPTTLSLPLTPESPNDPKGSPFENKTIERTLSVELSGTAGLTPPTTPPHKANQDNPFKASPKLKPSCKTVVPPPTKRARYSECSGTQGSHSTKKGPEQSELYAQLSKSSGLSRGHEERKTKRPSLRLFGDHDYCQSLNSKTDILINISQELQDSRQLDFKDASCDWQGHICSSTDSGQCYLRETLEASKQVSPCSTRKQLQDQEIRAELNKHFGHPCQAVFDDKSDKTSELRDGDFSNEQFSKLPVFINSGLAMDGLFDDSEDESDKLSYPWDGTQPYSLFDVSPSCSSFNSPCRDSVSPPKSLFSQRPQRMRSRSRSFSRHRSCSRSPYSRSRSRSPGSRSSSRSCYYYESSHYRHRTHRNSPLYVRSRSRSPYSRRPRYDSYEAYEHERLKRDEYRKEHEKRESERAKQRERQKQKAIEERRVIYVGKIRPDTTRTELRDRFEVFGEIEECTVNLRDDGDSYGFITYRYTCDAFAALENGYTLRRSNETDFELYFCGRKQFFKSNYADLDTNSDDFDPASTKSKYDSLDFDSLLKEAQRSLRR

Amino acid sequences for entries named in this document (tags omitted).
UniProt Q04207: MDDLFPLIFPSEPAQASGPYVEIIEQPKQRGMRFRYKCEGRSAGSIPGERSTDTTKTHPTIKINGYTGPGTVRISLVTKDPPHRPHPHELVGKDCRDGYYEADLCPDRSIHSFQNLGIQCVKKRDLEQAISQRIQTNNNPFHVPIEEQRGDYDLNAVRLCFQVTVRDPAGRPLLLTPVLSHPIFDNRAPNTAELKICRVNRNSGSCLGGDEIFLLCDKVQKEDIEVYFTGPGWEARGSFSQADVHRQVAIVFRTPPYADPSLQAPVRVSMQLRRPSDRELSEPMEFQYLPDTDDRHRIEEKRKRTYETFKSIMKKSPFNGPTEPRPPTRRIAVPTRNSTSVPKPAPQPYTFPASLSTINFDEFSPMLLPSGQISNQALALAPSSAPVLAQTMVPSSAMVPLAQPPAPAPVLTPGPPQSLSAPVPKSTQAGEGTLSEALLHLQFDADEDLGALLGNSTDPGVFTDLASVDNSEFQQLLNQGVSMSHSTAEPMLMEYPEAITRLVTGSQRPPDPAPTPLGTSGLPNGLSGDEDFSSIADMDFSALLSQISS
UniProt P42227: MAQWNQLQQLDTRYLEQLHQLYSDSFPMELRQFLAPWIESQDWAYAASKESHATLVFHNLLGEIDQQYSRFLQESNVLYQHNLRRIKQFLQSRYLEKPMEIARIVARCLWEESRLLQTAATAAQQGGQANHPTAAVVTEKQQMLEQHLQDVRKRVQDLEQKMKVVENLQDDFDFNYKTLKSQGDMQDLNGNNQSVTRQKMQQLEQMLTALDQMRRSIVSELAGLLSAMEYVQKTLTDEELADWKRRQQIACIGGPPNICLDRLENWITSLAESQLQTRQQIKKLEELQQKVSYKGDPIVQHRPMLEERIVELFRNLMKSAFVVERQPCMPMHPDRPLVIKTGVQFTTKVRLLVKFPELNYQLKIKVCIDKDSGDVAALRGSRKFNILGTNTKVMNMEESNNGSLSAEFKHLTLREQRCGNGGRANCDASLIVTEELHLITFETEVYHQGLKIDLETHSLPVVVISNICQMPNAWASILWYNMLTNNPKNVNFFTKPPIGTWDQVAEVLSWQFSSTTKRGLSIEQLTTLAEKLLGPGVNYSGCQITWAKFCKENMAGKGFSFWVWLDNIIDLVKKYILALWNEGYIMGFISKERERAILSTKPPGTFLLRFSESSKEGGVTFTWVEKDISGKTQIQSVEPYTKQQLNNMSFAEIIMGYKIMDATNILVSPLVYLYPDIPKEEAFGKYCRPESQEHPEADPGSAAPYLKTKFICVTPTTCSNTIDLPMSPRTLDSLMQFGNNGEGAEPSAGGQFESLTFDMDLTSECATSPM

[2] = target: p65 subunit of NF-κB (mouse (endogenous in liver)) (UniProt Q04207); assay: co-IP; immunoprecipitation with anti-p65 (#8242) from liver extracts of WT and PGC-1α KO mice with cerulein-induced pancreatitis, and of sham or cerulein-treated lean and obese mice; Western blot for p-STAT3 (Tyr705)

For “p65 subunit of NF-κB (from UniProt Q04207 1-549)”, the binding [1] was “binds”.
In the case of “phospho-STAT3 (Tyr705) (from UniProt P42227 1-770)”, the binding [2] is reported as “binds”.

Reference: paper PMC7554866
